The values below come from PubChem BioAssay AID493014 (National Center for Advancing Translational Sciences (NCATS), 2011).

The nature of this assay: qHTS Assay to Find Inhibitors of Chronic Active B-Cell Receptor Signaling. The note with it: ABC-DLBCL IkBa-CBG/CBR reporter, luminescence ratio (green luciferase fused to IkBa over red control in TMD8 lymphoma cells), 4 h. In short, it runs like this: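 Compounds up to 46 uM were incubated four hours with TMD8 cells whose green CBG68 luciferase is fused to IkappaBalpha; red CBR luminescence normalised the signal, and concentration-effect curves were fitted to fusion, red and ratio data.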
A general note: qHTS replaces the single test concentration by a dilution series.

[1] abbreviates: measured here: CBR red luminescence, cell number.
Setting [2] is: measured here: IkBa-CBG green luminescence.

Molecules are shown by their SMILES. This is one part of the list. These are further read-outs of the screen, such as a control signal, another cell line or another target. No call is given for them. Most of these compounds were active or inconclusive in the main read-out, so they are no random draw. The note in brackets gives the kind of curve behind each potency; many fits are weak.

A word on the AC50: it is the concentration at which the activity in the assay is half-maximal. As to `COc1ccccc1CN1CC(C(=O)NCCn2nc(C)cc2C)CCC1=O` (stereo unspecified), the AC50 under setting [1] is 35.5 µM [rising, single point] and the AC50 under setting [2] is 28.2 µM [falling, single point].

Take `Cn1c(C(=O)N2CCN(C(=O)c3ccco3)CC2)cc2c(=O)n3ccccc3nc21`: under setting [1], the AC50 is 6.51 µM [rising, single point].

On to `Cc1occc1C(=O)N/N=C/c1cccnc1`, for which the AC50 under setting [1] was 11.2 µM [falling, partial curve].

In the case of `O=C(Nc1cccc(C(F)(F)F)c1)N1CCN(C(=O)Nc2cccc(C(F)(F)F)c2)CC1`, the AC50 under setting [1] is 29.1 µM [rising, single point].

Take `CCOC(=O)[C@H]1[C@H]2COc3ccc(Cl)cc3[C@@H]2N2C(=O)CN(Cc3ccc(F)cc3)C(=O)[C@@]12C`: the half-maximal activity concentration (AC50) under setting [1] was 2.59 µM [rising, partial curve, poor fit].

Take `CC(=O)c1c(C)n(C)c2ccc(OC(=O)c3ccco3)cc12`: the half-maximal activity concentration (AC50) under setting [1] is 2.91 µM [rising, full curve, poor fit].

For `CCCCN(C(=O)C1=CC=CN2CCS(=O)(=O)N=C12)c1ccccc1`, the half-maximal activity concentration (AC50) under setting [1] is 0.82 µM [falling, full curve, poor fit].

For `Clc1ccc(OCc2nc(-c3ccc(Br)o3)no2)cc1`, the AC50 under setting [1] was 2.31 µM [rising, partial curve].

Turning to `CCOc1ccc(C(=O)Nc2cc(C)ccn2)cc1`, the AC50 under setting [1] is 10 µM [falling, partial curve].

As for `CC(=O)N1c2ccc(S(=O)(=O)N3CCC(C(=O)NCc4ccccc4)CC3)cc2CC1C` (stereo unspecified), the half-maximal activity concentration (AC50) under setting [1] is 6.31 µM [rising, full curve, poor fit].

Regarding `O=C(COc1ccccc1)NCC(=O)N/N=C/c1cccs1`, under setting [1], the half-maximal activity concentration (AC50) was 10 µM [rising, partial curve].

As to `Cc1ccc(NC(=O)Cc2noc3ccccc23)c(C)c1`, the AC50 under setting [1] is 29.1 µM [rising, single point].

With `COc1cccc(NC(=O)COC(=O)/C=C/c2c(C)nn(-c3ccccc3)c2C)c1`, the half-maximal activity concentration (AC50) under setting [2] is 23.1 µM [rising, partial curve, poor fit].

On to `O=C(Nc1ccc2nc3n(c(=O)c2c1)CCCC3)c1cc([N+](=O)[O-])ccc1F`, for which the AC50 under setting [1] was 9.2 µM [falling, partial curve] and the AC50 under setting [2] was 8.2 µM [falling, partial curve, poor fit].

As for `O=C(CSCc1ccc(Cl)cc1)Nc1cc([N+](=O)[O-])ccc1O`, the AC50 under setting [1] was 35.5 µM [falling, single point].

Consider `C/C(=N\NC(=S)NC1CCCCC1)c1cccs1`, for which the AC50 under setting [1] is 3.55 µM [rising, partial curve, poor fit].

`Cc1ccc(N/N=C/c2ccncc2)cc1`: under setting [1], the concentration at half-maximal activity (AC50) was 7.08 µM [rising, full curve, poor fit].

In the case of `CC(=O)Nc1ccc(S(=O)(=O)N(Cc2ccccc2)c2ccccc2)cc1`, under setting [1], the AC50 is 35.5 µM [rising, single point].

Turning to `Cc1csc(Cn2c(CN(C)C)nc3ccccc3c2=O)n1`, the half-maximal activity concentration (AC50) under setting [1] is 5.8 µM [falling, single point].

On to `Cc1nc(Nc2ccc(C(=O)O)cc2)nc(Nc2ccc(C(=O)O)cc2)c1[N+](=O)[O-]`, for which, under setting [1], the concentration at half-maximal activity (AC50) was 10 µM [falling, partial curve].

As to `O=C(Nc1ccc(F)cc1)c1ccc2ncsc2c1`, under setting [1], the AC50 is 20 µM [falling, single point].

Consider `CC(=O)c1cccc(NC(=O)c2cc3nc(C)cc(C)n3n2)c1`, for which the half-maximal activity concentration (AC50) under setting [1] was 14.6 µM [rising, partial curve, poor fit].

For `O=C(CCC1CCCC1)c1c(O)c2ccccc2oc1=O`, the AC50 under setting [1] is 4.11 µM [falling, partial curve].

In the case of `COc1ccc(NC(=O)CN2CCN(c3nc(-c4ccc(F)cc4)cs3)CC2)c(OC)c1`, the AC50 under setting [1] is 6.31 µM [rising, partial curve, poor fit].

For the molecule `O=C(c1c[nH]c(C(=O)C(Cl)(Cl)Cl)c1)c1ccc(F)cc1F`, the AC50 under setting [1] is 8.91 µM [falling, partial curve, poor fit].

As for `CNC(=O)[C@H]1O[C@@H](n2cnc3c(NCc4cccc(I)c4)nc(Cl)nc32)[C@H](O)[C@@H]1O`, the half-maximal activity concentration (AC50) runs as follows: under setting [1], 2.31 µM [rising, full curve]; under setting [2], 8.2 µM [falling, partial curve].

Regarding `CCOC(=O)c1c(NC(=O)C2C3CCC(O3)C2C(=O)O)sc2c1CCCC2` (stereo unspecified), the concentration at half-maximal activity (AC50) under setting [1] was 35.5 µM [falling, single point].

As for `O=[N+]([O-])c1ccc(N2CCN(S(=O)(=O)c3ccc4ccccc4c3)CC2)cc1NCC1CCCO1` (stereo unspecified), the AC50 under setting [1] was 32.6 µM [falling, single point].

On to `CN(CCOc1ccc(Cl)cc1)CC(=O)Nc1ccc(OC(F)F)cc1`, for which the half-maximal activity concentration (AC50) under setting [1] was 25.1 µM [falling, single point].

For the molecule `COc1cc(Br)cc(C=Nc2cccc(C(F)(F)F)c2)c1O`, the concentration at half-maximal activity (AC50) under setting [1] is 29.1 µM [falling, single point].

Regarding `COc1ccccc1CNC(=O)CNCCc1ccc(OC)c(OC)c1`, the AC50 under setting [1] was 14.1 µM [rising, single point].

Regarding `CC1Cc2nc(SCC(=O)N3CCCc4ccccc43)n(C)c(=O)c2S1` (stereo unspecified), the half-maximal activity concentration (AC50) under setting [1] was 20.6 µM [falling, single point].

Regarding `NNS(=O)(=O)c1ccc(Cc2ncc(C(F)(F)F)cc2Cl)s1`, under setting [1], the AC50 was 29.1 µM [rising, single point].

In the case of `Cc1ccc(S(=O)(=O)Nc2cnn(-c3ccccc3)c(=O)c2Cl)cc1`, the AC50 under setting [1] was 0.282 µM [falling, full curve, poor fit].

As for `O=C(O)c1ccc(NC(=S)NC2CCCCC2)cc1`, under setting [1], the AC50 is 7.31 µM [falling, partial curve].

On to `O=C1c2cccc3cccc(c23)C(=O)N1CCN1CCN(CC(O)COc2ccc3ccccc3c2)CC1` (stereo unspecified), for which, under setting [1], the AC50 is 3.66 µM [rising, full curve, poor fit].

As for `Cc1noc(C)c1C(=O)OCC(=O)Nc1ccccc1SCC#N`, under setting [1], the half-maximal activity concentration (AC50) is 3.66 µM [falling, full curve, poor fit].

For `O=C(N/N=C/c1ccccc1)c1n[nH]c2c1CCCC2`, the AC50 under setting [1] was 2.24 µM [falling, full curve].

For `COc1ccc(OC)c(S(=O)(=O)N2CCC3(CC2)OCCN3S(=O)(=O)c2cccs2)c1`, under setting [1], the half-maximal activity concentration (AC50) was 2.31 µM [rising, full curve, poor fit].

For `O=S1(=O)N=C(SCCO)c2ccccc21`, the AC50 under setting [1] was 35.5 µM [rising, partial curve, poor fit].

For `Cc1cccc(-c2nc3c4ccccc4n(CC(=O)Nc4cccc(F)c4)c(=O)n3n2)c1`, the half-maximal activity concentration (AC50) under setting [1] was 35.5 µM [rising, single point].

Take `CCCOc1ccc(N2C(=O)C3C(C(C)C)NC4(C(=O)c5ccccc5C4=O)C3C2=O)cc1` (stereo unspecified): the AC50 by setting is: under setting [1], 29.1 µM [falling, single point]; under setting [2], 32.6 µM [rising, partial curve, poor fit].

Regarding `COc1cccc2cc(CC(=O)c3cc(C)ccc3C)c(=O)oc12`, the AC50 under setting [1] is 6.31 µM [falling, partial curve, poor fit].

Turning to `N#CC1=C(O)CCCn2c1nc1ccccc1c2=O`, under setting [1], the AC50 is 35.5 µM [falling, single point].

Take `CC(C)S(=O)(=O)c1csc(NC(=O)Nc2ccc(Cl)cc2)c1`: under setting [1], the AC50 is 5.01 µM [falling, full curve].

In the case of `O=C(Nc1cc(Cl)ccc1-n1cncn1)c1cc(F)c(F)c(F)c1F`, the AC50 under setting [1] is 10.3 µM [falling, partial curve, poor fit] and the AC50 under setting [2] was 10.3 µM [rising, partial curve, poor fit].

`O=C(c1ccco1)N1CCN(S(=O)(=O)c2ccccc2[N+](=O)[O-])CC1`: under setting [1], the AC50 is 0.316 µM [rising, full curve, poor fit].

With `COc1c(Br)cc2c(C)c(C(=O)N3CCOCC3)oc2c1Br`, the concentration at half-maximal activity (AC50) under setting [1] is 0.0146 µM [rising, full curve, poor fit].

For the molecule `CN(CCC1CCCCO1)C(=O)CCc1nnc(CCc2ccccc2)o1` (stereo unspecified), the AC50 under setting [1] is 0.501 µM [rising, partial curve, poor fit].

On to `Cc1cc2nc(CSc3ccc(Cl)cc3)cc(=O)n2[nH]1`, for which the AC50 under setting [1] was 10 µM [falling, single point].

Consider `CCc1cccc(NC(=O)Cn2c(=O)n(Cc3ccccc3)c(=O)c3c(C)c(C(=O)N(C)C)sc32)c1`, for which the half-maximal activity concentration (AC50) under setting [1] is 12.6 µM [falling, single point].

Regarding `Cn1c(CCN2CCCC2)nc2cc(NS(=O)(=O)c3ccc(Cl)cc3)ccc21`, the AC50 under setting [1] was 14.1 µM [falling, partial curve].

Take `COc1ccc(CCN2C(=O)c3[nH]nc(-c4ccccc4O)c3C2c2ccc(C)cc2)cc1OC` (stereo unspecified): under setting [1], the half-maximal activity concentration (AC50) was 29.1 µM [falling, single point].

As for `CCN(CC(=O)Nc1cccc(OC)c1)C(=O)c1cccc(S(=O)(=O)N2CCc3ccccc32)c1`, the concentration at half-maximal activity (AC50) under setting [1] is 0.146 µM [falling, full curve, poor fit].

As for `O=C(c1ccccc1)c1ccc2n1CCC2C(=O)O` (stereo unspecified), the concentration at half-maximal activity (AC50) under setting [1] is 4.61 µM [rising, full curve, poor fit].

`Cc1ccc(-c2[nH]n3c(=O)c4c(nc3c2C)CCCC4)cc1`: the AC50 under setting [1] is 1.58 µM [rising, full curve, poor fit].

For the molecule `Cc1ccc2nsnc2c1S(=O)(=O)N1CCN(Cc2ccc3c(c2)OCO3)CC1`, the half-maximal activity concentration (AC50) under setting [1] was 0.326 µM [rising, full curve].

As to `COc1ccc(CN2C(=O)NC(C)(c3ccc(C)cc3)C2=O)cc1F` (stereo unspecified), the concentration at half-maximal activity (AC50) under setting [1] was 15.8 µM [falling, single point].

On to `Cc1cccc(NC(=O)CS(=O)(=O)c2cn(CC(=O)N3CCOCC3)c3ccccc23)c1`, for which, under setting [1], the AC50 is 12.6 µM [falling, partial curve].

As to `NS(=O)(=O)c1ccc(CNC(=O)/C=C/c2ccc(S(=O)(=O)N3CCOCC3)cc2)cc1`, the concentration at half-maximal activity (AC50) under setting [1] was 35.5 µM [falling, partial curve, poor fit].

Consider `CCOC(=O)c1c(C)[nH]c(C(=O)NNC(=O)c2ccc(C(C)(C)C)cc2)c1C`, for which, under setting [1], the AC50 is 2.59 µM [falling, partial curve, poor fit].
